Results are given in words; binding and its absence hold for the method and conditions named. For some assays here: Binding seen in cells or lysates may run through a third protein. Some results given as binding are weak or reduced against the parent protein; the word gives no strength. For some assays here: Tags and fused reporters may be left off the sequences shown.

Chains of the proteins cited; added tags and fusions are not shown.
UniProt P09760: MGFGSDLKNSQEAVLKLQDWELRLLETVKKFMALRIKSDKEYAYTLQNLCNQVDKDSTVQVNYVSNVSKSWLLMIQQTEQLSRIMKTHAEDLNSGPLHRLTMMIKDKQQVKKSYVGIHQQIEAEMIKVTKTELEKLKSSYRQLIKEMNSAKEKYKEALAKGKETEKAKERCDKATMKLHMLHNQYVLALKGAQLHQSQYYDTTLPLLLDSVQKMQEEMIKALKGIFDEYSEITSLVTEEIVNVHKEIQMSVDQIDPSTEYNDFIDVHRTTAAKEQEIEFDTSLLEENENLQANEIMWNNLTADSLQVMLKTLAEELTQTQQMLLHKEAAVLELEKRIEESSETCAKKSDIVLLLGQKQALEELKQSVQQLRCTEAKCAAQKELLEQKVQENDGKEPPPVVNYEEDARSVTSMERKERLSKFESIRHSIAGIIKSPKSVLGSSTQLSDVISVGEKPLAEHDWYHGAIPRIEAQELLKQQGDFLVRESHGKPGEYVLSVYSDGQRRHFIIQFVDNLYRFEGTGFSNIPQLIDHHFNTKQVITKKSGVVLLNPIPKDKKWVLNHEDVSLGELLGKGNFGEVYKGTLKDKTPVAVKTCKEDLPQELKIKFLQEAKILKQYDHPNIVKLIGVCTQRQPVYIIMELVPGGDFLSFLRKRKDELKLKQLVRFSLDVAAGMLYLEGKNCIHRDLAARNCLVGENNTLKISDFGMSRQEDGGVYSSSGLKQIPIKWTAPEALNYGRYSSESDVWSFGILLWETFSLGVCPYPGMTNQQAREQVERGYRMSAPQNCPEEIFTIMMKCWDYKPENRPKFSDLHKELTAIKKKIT

The text below walks through data of article PMC3009610.

Test [1] has as its target T1, endogenous RhoGDIα (RBL-2H3 mast cells) (rat (endogenous in RBL-2H3)) (UniProt Q5XI73).
T1 sequence: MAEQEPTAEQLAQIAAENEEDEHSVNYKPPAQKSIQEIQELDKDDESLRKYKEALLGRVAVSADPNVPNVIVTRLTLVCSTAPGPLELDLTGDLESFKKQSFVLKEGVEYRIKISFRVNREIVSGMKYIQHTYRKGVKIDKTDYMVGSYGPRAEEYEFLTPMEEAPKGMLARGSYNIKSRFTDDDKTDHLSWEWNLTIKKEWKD
Nature of the test: co-IP; endogenous proteins in RBL-2H3 mast cell lysates; Fer antibodies from Abcam, RhoGDIα antibodies from Santa Cruz.

For test [2], the target named is T2, RhoGDIα (Rho GDP-dissociation inhibitor α), transfected (UniProt P52565).
T2 sequence: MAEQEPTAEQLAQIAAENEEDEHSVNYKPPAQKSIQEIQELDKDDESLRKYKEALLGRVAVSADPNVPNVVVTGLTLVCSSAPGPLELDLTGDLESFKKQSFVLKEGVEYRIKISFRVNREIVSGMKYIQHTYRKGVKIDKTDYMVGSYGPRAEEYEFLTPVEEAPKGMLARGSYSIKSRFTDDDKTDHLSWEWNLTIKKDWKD
The experiment in a line: co-IP; COS-1 cells transfected with pEGFP-Fer (WT or MT) with or without RhoGDIα; IP with RhoGDIα antibodies or with Fer monoclonal rat antiserum, immunoblot; also after pervanadate (0.5 mM H2O2 + 0.5 mM vanadate, 5 min) in Figure 3A. For orientation: A western blot detects proteins with antibodies after separation by electrophoresis.

The target in test [3] is T3, RhoGDIα on far-Western blots (UniProt P52565).
T3 sequence: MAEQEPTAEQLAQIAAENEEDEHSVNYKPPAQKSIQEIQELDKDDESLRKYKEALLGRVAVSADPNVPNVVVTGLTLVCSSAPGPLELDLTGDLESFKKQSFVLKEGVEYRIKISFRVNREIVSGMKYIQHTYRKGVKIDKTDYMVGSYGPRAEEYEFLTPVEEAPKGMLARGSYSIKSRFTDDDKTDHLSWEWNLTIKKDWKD
The experiment in a line: far-Western, overlay or dot blot; isolated Fer SH2 domain on far-Western blots of RhoGDIα; not shown.

For test [4], the target named is T4, pEGFP-Fer (MT D742R), kinase dead mutant (UniProt P16591).
T4 sequence: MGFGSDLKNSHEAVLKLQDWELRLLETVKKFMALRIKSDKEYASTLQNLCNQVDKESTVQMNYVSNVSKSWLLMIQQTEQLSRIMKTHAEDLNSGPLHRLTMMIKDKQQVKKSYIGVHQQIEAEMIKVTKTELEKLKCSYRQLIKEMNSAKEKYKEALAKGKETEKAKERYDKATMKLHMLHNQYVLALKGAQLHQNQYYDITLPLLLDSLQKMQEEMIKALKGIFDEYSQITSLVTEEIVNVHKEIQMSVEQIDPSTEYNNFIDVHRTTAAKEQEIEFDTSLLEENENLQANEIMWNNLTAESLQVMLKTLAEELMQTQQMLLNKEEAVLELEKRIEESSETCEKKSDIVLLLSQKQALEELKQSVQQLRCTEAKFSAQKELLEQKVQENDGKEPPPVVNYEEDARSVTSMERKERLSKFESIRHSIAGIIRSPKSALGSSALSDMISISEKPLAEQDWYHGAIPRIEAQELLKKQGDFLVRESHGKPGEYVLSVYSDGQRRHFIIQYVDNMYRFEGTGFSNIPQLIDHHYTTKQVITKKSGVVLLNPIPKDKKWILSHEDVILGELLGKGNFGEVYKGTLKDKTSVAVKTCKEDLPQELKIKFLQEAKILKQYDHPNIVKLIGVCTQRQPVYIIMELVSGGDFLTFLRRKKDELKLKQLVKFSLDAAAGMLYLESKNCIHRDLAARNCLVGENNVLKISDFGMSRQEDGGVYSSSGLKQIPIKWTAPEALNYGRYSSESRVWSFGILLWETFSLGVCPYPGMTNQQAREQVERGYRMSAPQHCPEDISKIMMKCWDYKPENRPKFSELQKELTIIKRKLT
The experiment in a line: co-IP; COS-1 cells transfected with pEGFP-Fer (WT or MT) with or without RhoGDIα; IP with RhoGDIα antibodies or with Fer monoclonal rat antiserum, immunoblot; also after pervanadate (0.5 mM H2O2 + 0.5 mM vanadate, 5 min) in Figure 3A.

Test [5] has as its target pEGFP-Fer (wild type, WT) (UniProt P16591). Described as above.

For “endogenous Fer (RBL-2H3 mast cells) (from UniProt P09760 1-823) (enzyme)”, in test [1], the binding entry is reported as “binds”.
Turning to “pEGFP-Fer (wild type, WT) (from UniProt P16591 1-822) (enzyme)”, in test [2], the binding entry is “binds”.
In the case of “isolated Fer SH2 domain (from UniProt P16591 460-550) (domain or fragment)”, the binding entry in test [3] is “binds”.

B1: RhoGDIα (Rho GDP-dissociation inhibitor α), transfected (protein, UniProt P52565 1-204)
chain: MAEQEPTAEQLAQIAAENEEDEHSVNYKPPAQKSIQEIQELDKDDESLRKYKEALLGRVAVSADPNVPNVVVTGLTLVCSSAPGPLELDLTGDLESFKKQSFVLKEGVEYRIKISFRVNREIVSGMKYIQHTYRKGVKIDKTDYMVGSYGPRAEEYEFLTPVEEAPKGMLARGSYSIKSRFTDDDKTDHLSWEWNLTIKKDWKD
As to B1, the binding result in test [4] and in test [5] was “binds” throughout.
